Results are given in words; binding and its absence hold for the method and conditions named. Binding calls can cover weak binding; strength is not graded here.

The text below walks through data of article PMC4564143.

In experiment [1] the target is B. afzelii OspC YU (B. afzelii) (UniProt Q0SL36). Kind of experiment: ELISA; competition ELISA, sequential versus premix format: plates coated with 100 ng per well of one of four OspC proteins; soluble DsbA-fused tick protein; mouse immune sera at 1:100 for detection or premixed; supplemented with cleared E. coli lysate; background with SaΔN59 subtracted; both purified. For orientation: An ELISA detects its analyte on a solid surface through an enzyme-linked reagent.

Experiment [2] deals with B. afzelii OspC A3 (B. afzelii) (UniProt Q0SL36). Described as above.

As for “DsbA-fused Salp15 variant SaΔN59 (from UniProt Q95WZ4 60-135) (domain or fragment)”, the binding result in experiment [1] and in experiment [2] was “no binding” in each case.

As for “DsbA-fused wild-type Salp15 (from UniProt Q95WZ4 22-135)”, the binding entry in experiment [1] and in experiment [2] was “binds” throughout.
